This is one part of the list.
How the values were obtained:
Assay in all cases: log2 fold change, soluble protein after heating vs DMSO (PISA); higher = thermal stabilisation; K562 lysate, 10 uM; active = over 0.2 and 3.5 SD of the protein, either way, in both replicates (recomputed)
ibrutinib = compound: C=CC(=O)N1CCC[C@@H](n2nc(-c3ccc(Oc4ccccc4)cc3)c3c(N)ncnc32)C1 [ibrutinib]
In short: (§1)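 Thermal stability, expressed as log-two fold change relative to solvent controls, is given from duplicates. Crude K562 extract in PBS pH 7.4 with 1 mM MgCl2, at 1 mg/mL protein, was treated with 10 μM compound for 30 min and heated in aliquots for 3 min across 48°C-58°C. After pooling, adjustment to 0.5% NP-40 at 4°C and centrifugation at 21,000xg for 90 min, supernatant protein was measured by TMTpro 16plex LC-MS/MS with channel sums equalised.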

By UniProt entry, the sequences of proteins in these tests, tags left out. Where a name states a change or a piece, a line headed by the entry shows the natural chain unless it says otherwise.
UniProt O43852: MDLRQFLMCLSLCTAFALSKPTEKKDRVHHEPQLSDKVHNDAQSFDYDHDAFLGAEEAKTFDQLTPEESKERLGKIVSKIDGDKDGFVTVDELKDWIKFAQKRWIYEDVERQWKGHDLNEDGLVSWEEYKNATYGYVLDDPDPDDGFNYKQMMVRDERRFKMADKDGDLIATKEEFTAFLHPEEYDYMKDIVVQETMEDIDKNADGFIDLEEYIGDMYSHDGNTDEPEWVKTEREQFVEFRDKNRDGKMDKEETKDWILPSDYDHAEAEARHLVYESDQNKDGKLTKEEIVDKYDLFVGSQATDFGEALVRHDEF
UniProt Q6P1X6: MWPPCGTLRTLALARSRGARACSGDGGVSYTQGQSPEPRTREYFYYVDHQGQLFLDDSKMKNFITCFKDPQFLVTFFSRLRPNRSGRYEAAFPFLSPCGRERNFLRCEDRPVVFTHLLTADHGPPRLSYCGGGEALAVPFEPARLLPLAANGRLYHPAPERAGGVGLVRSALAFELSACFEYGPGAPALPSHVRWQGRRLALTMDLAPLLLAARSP
UniProt O75808: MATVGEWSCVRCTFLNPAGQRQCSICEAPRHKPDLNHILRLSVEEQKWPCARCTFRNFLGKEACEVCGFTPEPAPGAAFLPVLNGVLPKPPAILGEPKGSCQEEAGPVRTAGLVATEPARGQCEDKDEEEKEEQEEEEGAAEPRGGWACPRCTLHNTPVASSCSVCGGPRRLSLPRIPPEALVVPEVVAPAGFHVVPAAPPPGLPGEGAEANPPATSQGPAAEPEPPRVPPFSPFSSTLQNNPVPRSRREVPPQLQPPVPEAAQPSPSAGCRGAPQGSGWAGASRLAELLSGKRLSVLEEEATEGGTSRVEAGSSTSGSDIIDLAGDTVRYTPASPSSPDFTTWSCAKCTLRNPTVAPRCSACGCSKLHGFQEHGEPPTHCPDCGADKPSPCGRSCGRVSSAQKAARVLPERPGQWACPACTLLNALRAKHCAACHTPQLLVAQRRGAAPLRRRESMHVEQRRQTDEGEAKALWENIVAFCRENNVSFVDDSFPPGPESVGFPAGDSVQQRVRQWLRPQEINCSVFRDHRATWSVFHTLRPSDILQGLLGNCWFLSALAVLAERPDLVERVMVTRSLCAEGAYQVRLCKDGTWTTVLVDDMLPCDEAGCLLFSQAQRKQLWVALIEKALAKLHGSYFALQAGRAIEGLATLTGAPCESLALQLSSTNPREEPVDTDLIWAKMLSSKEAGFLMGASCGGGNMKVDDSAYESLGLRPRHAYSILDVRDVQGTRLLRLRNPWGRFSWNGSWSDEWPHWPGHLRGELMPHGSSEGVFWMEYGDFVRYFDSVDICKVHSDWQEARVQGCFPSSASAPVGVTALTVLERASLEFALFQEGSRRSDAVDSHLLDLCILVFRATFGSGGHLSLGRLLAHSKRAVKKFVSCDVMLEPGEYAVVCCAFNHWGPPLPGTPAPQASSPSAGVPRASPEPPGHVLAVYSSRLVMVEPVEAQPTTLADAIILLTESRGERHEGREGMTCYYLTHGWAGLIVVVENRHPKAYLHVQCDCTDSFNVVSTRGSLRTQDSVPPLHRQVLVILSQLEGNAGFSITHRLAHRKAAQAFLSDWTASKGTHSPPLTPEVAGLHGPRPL
UniProt Q13555: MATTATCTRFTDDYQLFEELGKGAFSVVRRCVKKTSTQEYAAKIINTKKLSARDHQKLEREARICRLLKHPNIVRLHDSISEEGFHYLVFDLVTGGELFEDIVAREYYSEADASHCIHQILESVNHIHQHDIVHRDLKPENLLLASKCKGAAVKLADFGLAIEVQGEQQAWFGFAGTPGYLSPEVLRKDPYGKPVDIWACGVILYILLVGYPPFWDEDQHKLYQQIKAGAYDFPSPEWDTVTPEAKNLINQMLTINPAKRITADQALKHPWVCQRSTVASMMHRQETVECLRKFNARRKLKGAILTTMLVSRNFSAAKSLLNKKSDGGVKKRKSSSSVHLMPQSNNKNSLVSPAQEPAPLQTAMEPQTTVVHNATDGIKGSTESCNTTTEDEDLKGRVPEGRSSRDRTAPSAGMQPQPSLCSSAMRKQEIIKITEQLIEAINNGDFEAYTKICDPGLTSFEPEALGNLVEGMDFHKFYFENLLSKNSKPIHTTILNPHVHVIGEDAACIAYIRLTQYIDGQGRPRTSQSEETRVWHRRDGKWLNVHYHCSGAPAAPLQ
UniProt Q8IXQ3: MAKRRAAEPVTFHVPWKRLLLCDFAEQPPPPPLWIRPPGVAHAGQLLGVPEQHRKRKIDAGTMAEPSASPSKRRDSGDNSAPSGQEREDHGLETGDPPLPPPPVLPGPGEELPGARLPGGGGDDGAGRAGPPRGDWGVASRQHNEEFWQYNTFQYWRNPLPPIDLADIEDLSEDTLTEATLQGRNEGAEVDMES
UniProt Q6UWU4: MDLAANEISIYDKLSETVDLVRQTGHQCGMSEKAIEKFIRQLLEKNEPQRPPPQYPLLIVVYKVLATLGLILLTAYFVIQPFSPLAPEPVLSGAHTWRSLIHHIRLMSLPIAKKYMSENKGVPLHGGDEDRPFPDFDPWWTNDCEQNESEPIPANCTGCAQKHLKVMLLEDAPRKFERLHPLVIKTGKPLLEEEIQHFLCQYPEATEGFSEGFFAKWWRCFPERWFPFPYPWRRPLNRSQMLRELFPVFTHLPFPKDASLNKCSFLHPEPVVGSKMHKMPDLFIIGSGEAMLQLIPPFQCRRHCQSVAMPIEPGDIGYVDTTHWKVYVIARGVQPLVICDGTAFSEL
UniProt Q49AR2: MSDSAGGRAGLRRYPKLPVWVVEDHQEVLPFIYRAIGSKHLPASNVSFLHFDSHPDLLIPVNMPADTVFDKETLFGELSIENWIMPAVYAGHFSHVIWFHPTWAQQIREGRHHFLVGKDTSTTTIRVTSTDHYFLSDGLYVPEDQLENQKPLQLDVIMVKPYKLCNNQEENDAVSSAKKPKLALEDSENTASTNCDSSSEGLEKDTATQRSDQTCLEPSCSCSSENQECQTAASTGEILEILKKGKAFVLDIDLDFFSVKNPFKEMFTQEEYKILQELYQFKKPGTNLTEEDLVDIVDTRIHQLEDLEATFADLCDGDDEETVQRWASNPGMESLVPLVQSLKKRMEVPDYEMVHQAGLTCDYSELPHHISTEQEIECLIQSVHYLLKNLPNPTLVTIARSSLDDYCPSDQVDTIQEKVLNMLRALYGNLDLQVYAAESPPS
UniProt Q96GQ5: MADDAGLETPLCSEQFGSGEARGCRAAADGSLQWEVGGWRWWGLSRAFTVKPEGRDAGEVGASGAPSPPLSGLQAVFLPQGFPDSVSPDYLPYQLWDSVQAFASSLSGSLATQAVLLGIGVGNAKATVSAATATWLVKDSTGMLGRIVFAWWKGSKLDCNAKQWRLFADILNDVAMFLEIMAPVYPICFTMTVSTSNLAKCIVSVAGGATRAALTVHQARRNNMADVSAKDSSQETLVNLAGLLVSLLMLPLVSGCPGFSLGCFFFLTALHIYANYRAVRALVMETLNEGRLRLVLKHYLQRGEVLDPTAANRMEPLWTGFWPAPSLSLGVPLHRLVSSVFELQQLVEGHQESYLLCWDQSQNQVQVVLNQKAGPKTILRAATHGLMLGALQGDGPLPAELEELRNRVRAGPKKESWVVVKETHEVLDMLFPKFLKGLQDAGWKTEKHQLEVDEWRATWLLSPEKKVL
UniProt P17655: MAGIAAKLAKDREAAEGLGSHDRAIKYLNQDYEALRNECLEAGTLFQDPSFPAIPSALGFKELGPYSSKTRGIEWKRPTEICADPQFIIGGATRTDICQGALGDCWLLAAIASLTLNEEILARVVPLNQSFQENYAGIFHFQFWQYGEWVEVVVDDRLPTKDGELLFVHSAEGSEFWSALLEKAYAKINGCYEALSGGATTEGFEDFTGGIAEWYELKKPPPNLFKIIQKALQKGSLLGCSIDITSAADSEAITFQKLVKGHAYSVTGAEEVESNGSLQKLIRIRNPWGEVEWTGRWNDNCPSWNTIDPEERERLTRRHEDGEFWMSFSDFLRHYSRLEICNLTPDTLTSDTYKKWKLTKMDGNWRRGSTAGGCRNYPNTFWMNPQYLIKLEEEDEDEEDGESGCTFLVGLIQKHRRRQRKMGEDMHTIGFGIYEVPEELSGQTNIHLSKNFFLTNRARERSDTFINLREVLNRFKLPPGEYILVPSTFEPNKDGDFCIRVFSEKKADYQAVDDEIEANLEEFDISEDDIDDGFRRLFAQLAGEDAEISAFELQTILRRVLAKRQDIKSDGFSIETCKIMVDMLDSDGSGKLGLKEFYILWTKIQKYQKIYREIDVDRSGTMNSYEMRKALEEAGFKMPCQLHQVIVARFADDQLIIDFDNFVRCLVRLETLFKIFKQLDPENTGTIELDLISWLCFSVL
UniProt Q96RR4, whole entry, looked up: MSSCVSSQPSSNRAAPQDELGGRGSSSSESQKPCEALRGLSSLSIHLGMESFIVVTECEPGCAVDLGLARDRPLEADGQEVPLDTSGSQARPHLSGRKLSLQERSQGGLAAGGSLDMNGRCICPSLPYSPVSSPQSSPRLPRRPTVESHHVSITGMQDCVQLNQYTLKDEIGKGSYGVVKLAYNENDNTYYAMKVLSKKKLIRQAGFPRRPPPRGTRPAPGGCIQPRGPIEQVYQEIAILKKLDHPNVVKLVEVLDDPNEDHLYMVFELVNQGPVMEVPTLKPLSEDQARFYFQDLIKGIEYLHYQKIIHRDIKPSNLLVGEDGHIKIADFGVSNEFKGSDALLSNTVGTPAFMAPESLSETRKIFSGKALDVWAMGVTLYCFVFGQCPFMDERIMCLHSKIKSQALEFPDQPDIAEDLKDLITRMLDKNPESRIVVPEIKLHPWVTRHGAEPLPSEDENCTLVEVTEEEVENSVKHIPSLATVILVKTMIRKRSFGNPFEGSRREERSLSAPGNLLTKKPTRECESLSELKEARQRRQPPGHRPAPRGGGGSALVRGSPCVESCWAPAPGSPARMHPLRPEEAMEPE
UniProt Q96N11, whole entry, looked up: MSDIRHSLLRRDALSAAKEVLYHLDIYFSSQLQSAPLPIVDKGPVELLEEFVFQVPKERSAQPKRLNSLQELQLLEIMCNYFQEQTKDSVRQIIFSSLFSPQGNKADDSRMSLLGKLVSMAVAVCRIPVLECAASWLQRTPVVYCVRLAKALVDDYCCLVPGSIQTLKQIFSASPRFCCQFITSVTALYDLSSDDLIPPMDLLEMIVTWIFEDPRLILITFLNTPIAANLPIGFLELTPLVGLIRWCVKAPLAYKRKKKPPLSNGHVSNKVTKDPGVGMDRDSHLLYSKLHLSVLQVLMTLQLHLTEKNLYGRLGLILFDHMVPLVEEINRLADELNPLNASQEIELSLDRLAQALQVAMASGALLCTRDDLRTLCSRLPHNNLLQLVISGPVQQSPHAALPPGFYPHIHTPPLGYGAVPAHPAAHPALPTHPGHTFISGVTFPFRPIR

[1] = compound: CC(=O)c1cnc2ccc(-c3cc(Cl)c(O)c(Cl)c3)nc2c1N[C@H]1CC[C@H](CN(C)C)CC1
In short: as §1

ralimetinib = compound: CC(C)(C)Cn1c(N)nc2ccc(-c3[nH]c(C(C)(C)C)nc3-c3ccc(F)cc3)nc21 [ralimetinib]
In short: as §1

[2] = compound: CC(C)(O)CC(=O)NCCn1ccc2ncnc(Nc3ccc(Oc4cccc(C(F)(F)F)c4)c(Cl)c3)c21
In short: as §1

[3] = compound: CC(C)C1=C2N=C(C=C(N2N=C1)NCC3=CC=CC=C3)NCCCCCCN
In short: as §1

[4] = compound: CC1=C(C(CC(=O)N1)C2=CC=C(C=C2)C(F)(F)F)C(=O)NC3=C(C=C4C(=C3)C=NN4)F
In short: as §1

[5] = compound: CC1=C(C2=C(C=C1)C(=O)C3=CC=CC=C3N2CCCN)C
In short: as §1

[6] = compound: CC1=C(C=C(C=C1)NC(=O)C2=CC(=CC=C2)C(C)(C)C#N)NC3=CC4=C(C=C3)N=CN(C4=O)C
In short: as §1

[7] = compound: CC1=C(C=C(C=C1)NC(=O)C2=CC(=CC=C2)N(C)C)NC(=O)C3=CC=C(C=C3)O
In short: as §1

[8] = compound: CC1=CC=C(C=C1)SC2=C3C=C(SC3=CN=C2)C(=O)N
In short: as §1

vemurafenib = compound: CCCS(=O)(=O)Nc1ccc(F)c(C(=O)c2c[nH]c3ncc(-c4ccc(Cl)cc4)cc23)c1F [vemurafenib]
In short: as §1

[9] = compound: CCCS(=O)(=O)Nc1ccc(F)c(C(=O)c2c[nH]c3ncc(Cl)cc23)c1F
In short: as §1

barasertib = compound: CCN(CCCOc1ccc2c(Nc3cc(CC(=O)Nc4cccc(F)c4)[nH]n3)ncnc2c1)CCOP(=O)(O)O [barasertib]
In short: as §1

[10] = compound: CC[C@@H]1C(=O)N(C)c2cnc(Nc3ccc(C(=O)NC4CCN(C)CC4)cc3OC)nc2N1C1CCCC1
In short: as §1

volasertib = compound: CC[C@@H]1C(=O)N(C)c2cnc(Nc3ccc(C(=O)N[C@H]4CC[C@H](N5CCN(CC6CC6)CC5)CC4)cc3OC)nc2N1C(C)C [volasertib]
In short: as §1

[11] = compound: CCn1c(C(=O)N(C2CC2)C2CC2)cc2c3c(ncn3C)c(Nc3cc(C)n(C)n3)nc21
In short: as §1

[12] = compound: CCn1cc(-c2ccnc3[nH]c(-c4cccc(CN(C)C)c4)cc23)c(-c2ccc(NC(=O)N(C)C)cc2)n1
In short: as §1

[13] = compound: CN1CCC(CNc2ccc3ncc(-c4cccc(OC(F)(F)F)c4)n3n2)CC1
In short: as §1

saracatinib = compound: CN1CCN(CCOc2cc(OC3CCOCC3)c3c(Nc4c(Cl)ccc5c4OCO5)ncnc3c2)CC1 [saracatinib]
In short: as §1

sotrastaurin = compound: CN1CCN(c2nc(C3=C(c4c[nH]c5ccccc45)C(=O)NC3=O)c3ccccc3n2)CC1 [sotrastaurin]
In short: as §1

Measured: log2 fold change

C3 (UniProt P01024)
inactive: ibrutinib -0.047 | [1] -0.011 | ralimetinib -0.077 | [2] -0.032 | [3] 0.865 | [4] 0.243 | [5] -0.004 | [6] 0.01 | [7] 0.026 | [8] 0.001 | vemurafenib -0.02 | [9] 0.042 | barasertib 0.059 | [10] 0.07 | volasertib 0.009 | [11] -0.096 | [12] -0.134 | [13] 0.039 | saracatinib 0.001 | sotrastaurin 0.014

CALU isoform 3 (UniProt O43852)
inactive: ibrutinib -0.04 | [1] -0.006 | ralimetinib -0.03 | [2] -0.006 | [3] 0.003 | [4] -0.013 | [5] -0.014 | [6] 0.01 | [7] 0.01 | [8] -0.021 | vemurafenib 0.003 | [9] -0.002 | barasertib -0.045 | [10] 0.053 | volasertib 0.03 | [11] -0.023 | [12] 0.069 | [13] 0.019 | saracatinib -0.003 | sotrastaurin -0.002

C8orf82 (UniProt Q6P1X6)
inactive: ibrutinib -0.003 | [1] -0.012 | ralimetinib -0.017 | [2] -0.045 | [3] 0.006 | [4] -0.035 | [5] 0.008 | [6] 0.009 | [7] 0.009 | [8] 0.011 | vemurafenib 0.031 | [9] 0.013 | barasertib 0.011 | [10] -0.005 | volasertib 0.003 | [11] 0.006 | [12] 0.016 | [13] -0.01 | saracatinib 0.077 | sotrastaurin -0.039

CAPN15 (UniProt O75808)
inactive: ibrutinib 0.037 | [1] -0.065 | ralimetinib 0.09 | [2] 0.008 | [3] -0.002 | [4] 0.025 | [5] 0.019 | [6] 0.086 | [7] 0.007 | [8] 0.046 | vemurafenib 0.04 | [9] -0.046 | barasertib 0.077 | [10] -0.007 | volasertib 0.027 | [11] 0.013 | [12] 0.037 | [13] 0.016 | saracatinib 0.032 | sotrastaurin -0.091

CAMK2G isoform 8 (UniProt Q13555)
inactive: ibrutinib 0.036 | [1] 0.173 | ralimetinib -0.022 | [2] 0.009 | [3] -0.001 | [4] -0.019 | [5] 0.073 | [6] -0.03 | [7] 0.05 | [8] -0.027 | vemurafenib 0.067 | [9] -0.03 | barasertib 0.058 | [10] 0.102 | volasertib -0.033 | [11] -0.079 | [12] -0.001 | [13] 0.022 | saracatinib 0.086
active: sotrastaurin 0.345

C9orf40 (UniProt Q8IXQ3)
inactive: ibrutinib 0.098 | [1] 0.001 | ralimetinib -0.025 | [2] -0.006 | [3] -0.048 | [4] -0.123 | [5] -0.047 | [6] 0.004 | [7] -0.023 | [8] -0.045 | vemurafenib 0.053 | [9] 0.032 | barasertib 0.107 | [10] 0.071 | volasertib 0.012 | [11] 0.033 | [12] -0.035 | [13] 0.014 | saracatinib 0.03 | sotrastaurin -0.007

C11orf98 (UniProt E9PRG8)
inactive: ibrutinib -0.008 | [1] -0.024 | ralimetinib -0.035 | [2] -0.026 | [3] -0.004 | [4] 0.005 | [5] -0.031 | [6] 0.033 | [7] -0.011 | [8] 0.008 | vemurafenib 0.03 | [9] -0.013 | barasertib -0.011 | [10] 0.046 | volasertib -0.013 | [11] -0.021 | [12] -0.025 | [13] 0.032 | saracatinib -0.035 | sotrastaurin 0.007

C6orf89 isoform 2 (UniProt Q6UWU4)
inactive: ibrutinib 0.003 | [1] 0.063 | ralimetinib 0.012 | [2] -0.024 | [3] -0.047 | [4] 0.069 | [5] 0.026 | [6] -0.041 | [7] -0.002 | [8] 0.082 | vemurafenib 0.034 | [9] -0.044 | barasertib 0.036 | [10] 0.14 | volasertib 0.022 | [11] 0.062 | [12] 0.021 | [13] 0.009 | saracatinib -0.017 | sotrastaurin 0.048

CALM2 (UniProt P0DP24)
inactive: ibrutinib 0.262 | [1] 0.004 | ralimetinib -0.014 | [2] -0.238 | [3] -0.07 | [4] -0.044 | [5] -0.101 | [6] -0.013 | [7] -0.099 | [8] 0.004 | vemurafenib 0.028 | [9] 0.011 | [10] 0.038 | volasertib 0.024 | [11] -0.079 | [12] -0.22 | [13] 0.237 | saracatinib 0.029 | sotrastaurin 0
active: barasertib 0.564

C5orf22 (UniProt Q49AR2)
inactive: ibrutinib 0.004 | [1] 0.009 | ralimetinib 0.012 | [2] -0.006 | [3] -0.005 | [4] -0.022 | [5] -0.009 | [6] 0.002 | [7] 0.002 | [8] -0.006 | vemurafenib 0.007 | [9] -0.028 | barasertib -0.043 | [10] 0.024 | volasertib -0.003 | [11] -0.052 | [12] -0.101 | [13] 0.007 | saracatinib 0.001 | sotrastaurin 0

Two records drawn at random from those above, as already listed:
C6orf89 isoform 2 (UniProt Q6UWU4)
inactive: ibrutinib 0.003 | [1] 0.063 | ralimetinib 0.012 | [2] -0.024 | [3] -0.047 | [4] 0.069 | [5] 0.026 | [6] -0.041 | [7] -0.002 | [8] 0.082 | vemurafenib 0.034 | [9] -0.044 | barasertib 0.036 | [10] 0.14 | volasertib 0.022 | [11] 0.062 | [12] 0.021 | [13] 0.009 | saracatinib -0.017 | sotrastaurin 0.048

C11orf98 (UniProt E9PRG8)
inactive: ibrutinib -0.008 | [1] -0.024 | ralimetinib -0.035 | [2] -0.026 | [3] -0.004 | [4] 0.005 | [5] -0.031 | [6] 0.033 | [7] -0.011 | [8] 0.008 | vemurafenib 0.03 | [9] -0.013 | barasertib -0.011 | [10] 0.046 | volasertib -0.013 | [11] -0.021 | [12] -0.025 | [13] 0.032 | saracatinib -0.035 | sotrastaurin 0.007

Going on with the list:

C16orf58 (UniProt Q96GQ5)
inactive: ibrutinib 0.008 | [1] 0.002 | ralimetinib -0.025 | [2] 0 | [3] 0.009 | [4] 0.071 | [5] -0.015 | [6] 0.03 | [7] -0.044 | [8] 0.011 | vemurafenib -0.023 | [9] 0.072 | barasertib 0.064 | [10] -0.005 | volasertib 0.018 | [11] -0.076 | [12] 0.024 | [13] -0.073 | saracatinib 0.013 | sotrastaurin -0.033

CAPN2 (UniProt P17655)
inactive: ibrutinib -0.004 | [1] 0.005 | ralimetinib 0.011 | [2] -0.006 | [3] 0.006 | [4] 0.005 | [5] 0.011 | [6] 0.003 | [7] 0.003 | [8] 0.002 | vemurafenib -0.02 | [9] 0.012 | barasertib -0.006 | [10] -0.017 | volasertib -0.011 | [11] -0.01 | [12] 0.099 | [13] -0.023 | saracatinib -0.007 | sotrastaurin -0.011

CAMKK2 (UniProt Q96RR4)
active: [1] 0.231
inactive: ibrutinib 0.052 | ralimetinib 0.035 | [2] -0.005 | [3] 0.019 | [4] -0.011 | [5] -0.005 | [6] -0.031 | [7] 0.005 | [8] 0.014 | vemurafenib -0.07 | [9] -0.026 | barasertib 0.003 | [10] 0.176 | volasertib 0.075 | [11] 0.057 | [12] 0.003 | [13] 0.002 | saracatinib -0.017 | sotrastaurin 0.069

C7orf26 (UniProt Q96N11)
inactive: ibrutinib 0.091 | [1] 0.024 | ralimetinib 0.024 | [2] 0.001 | [3] 0.01 | [4] 0.184 | [5] -0.002 | [6] 0.006 | [7] 0.027 | [8] 0.025 | vemurafenib 0.1 | [9] -0.027 | barasertib -0.137 | [10] -0.006 | volasertib 0 | [11] -0.019 | [12] -0.056 | [13] -0.035 | saracatinib 0.03 | sotrastaurin -0.07

C20orf27 isoform 2 (UniProt Q9GZN8)
inactive: ibrutinib 0.106 | [1] 0.039 | ralimetinib -0.066 | [2] -0.037 | [3] 0.036 | [4] 0.041 | [5] -0.007 | [6] 0.015 | [7] 0.073 | [8] 0.003 | vemurafenib 0.053 | [9] 0.018 | barasertib -0.041 | [10] 0.047 | volasertib -0.015 | [11] -0.002 | [12] 0.011 | [13] 0.039 | saracatinib 0.011 | sotrastaurin -0.074

CAPZA1 (UniProt P52907)
inactive: ibrutinib 0.013 | [1] -0.008 | ralimetinib 0.028 | [2] -0.037 | [3] -0.032 | [4] -0.009 | [5] -0.03 | [6] 0.034 | [7] -0.006 | [8] -0.034 | vemurafenib 0.028 | [9] 0.034 | barasertib -0.049 | [10] 0.043 | volasertib 0.005 | [11] -0.018 | [12] -0.082 | [13] 0.086 | saracatinib 0.006 | sotrastaurin 0.005
